By UniProt entry, the sequences of proteins in these tests, tags left out. Residues count along the entry.
UniProt P43403: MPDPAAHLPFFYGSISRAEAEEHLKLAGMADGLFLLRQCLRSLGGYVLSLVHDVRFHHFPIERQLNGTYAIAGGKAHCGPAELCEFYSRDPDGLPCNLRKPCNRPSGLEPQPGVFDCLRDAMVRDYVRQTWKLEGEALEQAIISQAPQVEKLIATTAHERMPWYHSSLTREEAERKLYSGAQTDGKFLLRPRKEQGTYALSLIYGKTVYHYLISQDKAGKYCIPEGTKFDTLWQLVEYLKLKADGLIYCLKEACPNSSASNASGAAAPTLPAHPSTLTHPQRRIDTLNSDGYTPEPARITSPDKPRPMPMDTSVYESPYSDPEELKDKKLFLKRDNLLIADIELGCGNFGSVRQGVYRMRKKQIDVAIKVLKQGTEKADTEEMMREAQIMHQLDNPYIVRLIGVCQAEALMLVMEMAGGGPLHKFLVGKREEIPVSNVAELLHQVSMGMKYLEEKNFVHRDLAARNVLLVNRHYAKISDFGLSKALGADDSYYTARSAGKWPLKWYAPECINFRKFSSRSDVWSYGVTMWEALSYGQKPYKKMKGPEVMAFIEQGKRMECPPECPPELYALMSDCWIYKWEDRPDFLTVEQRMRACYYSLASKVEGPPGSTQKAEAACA
UniProt P07766, residues 23-207: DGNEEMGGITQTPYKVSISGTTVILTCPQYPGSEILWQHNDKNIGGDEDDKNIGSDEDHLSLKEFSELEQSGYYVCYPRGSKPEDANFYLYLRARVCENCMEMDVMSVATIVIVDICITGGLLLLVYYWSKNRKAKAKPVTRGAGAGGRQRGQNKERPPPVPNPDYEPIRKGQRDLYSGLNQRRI
UniProt Q14517, residues 22-4588: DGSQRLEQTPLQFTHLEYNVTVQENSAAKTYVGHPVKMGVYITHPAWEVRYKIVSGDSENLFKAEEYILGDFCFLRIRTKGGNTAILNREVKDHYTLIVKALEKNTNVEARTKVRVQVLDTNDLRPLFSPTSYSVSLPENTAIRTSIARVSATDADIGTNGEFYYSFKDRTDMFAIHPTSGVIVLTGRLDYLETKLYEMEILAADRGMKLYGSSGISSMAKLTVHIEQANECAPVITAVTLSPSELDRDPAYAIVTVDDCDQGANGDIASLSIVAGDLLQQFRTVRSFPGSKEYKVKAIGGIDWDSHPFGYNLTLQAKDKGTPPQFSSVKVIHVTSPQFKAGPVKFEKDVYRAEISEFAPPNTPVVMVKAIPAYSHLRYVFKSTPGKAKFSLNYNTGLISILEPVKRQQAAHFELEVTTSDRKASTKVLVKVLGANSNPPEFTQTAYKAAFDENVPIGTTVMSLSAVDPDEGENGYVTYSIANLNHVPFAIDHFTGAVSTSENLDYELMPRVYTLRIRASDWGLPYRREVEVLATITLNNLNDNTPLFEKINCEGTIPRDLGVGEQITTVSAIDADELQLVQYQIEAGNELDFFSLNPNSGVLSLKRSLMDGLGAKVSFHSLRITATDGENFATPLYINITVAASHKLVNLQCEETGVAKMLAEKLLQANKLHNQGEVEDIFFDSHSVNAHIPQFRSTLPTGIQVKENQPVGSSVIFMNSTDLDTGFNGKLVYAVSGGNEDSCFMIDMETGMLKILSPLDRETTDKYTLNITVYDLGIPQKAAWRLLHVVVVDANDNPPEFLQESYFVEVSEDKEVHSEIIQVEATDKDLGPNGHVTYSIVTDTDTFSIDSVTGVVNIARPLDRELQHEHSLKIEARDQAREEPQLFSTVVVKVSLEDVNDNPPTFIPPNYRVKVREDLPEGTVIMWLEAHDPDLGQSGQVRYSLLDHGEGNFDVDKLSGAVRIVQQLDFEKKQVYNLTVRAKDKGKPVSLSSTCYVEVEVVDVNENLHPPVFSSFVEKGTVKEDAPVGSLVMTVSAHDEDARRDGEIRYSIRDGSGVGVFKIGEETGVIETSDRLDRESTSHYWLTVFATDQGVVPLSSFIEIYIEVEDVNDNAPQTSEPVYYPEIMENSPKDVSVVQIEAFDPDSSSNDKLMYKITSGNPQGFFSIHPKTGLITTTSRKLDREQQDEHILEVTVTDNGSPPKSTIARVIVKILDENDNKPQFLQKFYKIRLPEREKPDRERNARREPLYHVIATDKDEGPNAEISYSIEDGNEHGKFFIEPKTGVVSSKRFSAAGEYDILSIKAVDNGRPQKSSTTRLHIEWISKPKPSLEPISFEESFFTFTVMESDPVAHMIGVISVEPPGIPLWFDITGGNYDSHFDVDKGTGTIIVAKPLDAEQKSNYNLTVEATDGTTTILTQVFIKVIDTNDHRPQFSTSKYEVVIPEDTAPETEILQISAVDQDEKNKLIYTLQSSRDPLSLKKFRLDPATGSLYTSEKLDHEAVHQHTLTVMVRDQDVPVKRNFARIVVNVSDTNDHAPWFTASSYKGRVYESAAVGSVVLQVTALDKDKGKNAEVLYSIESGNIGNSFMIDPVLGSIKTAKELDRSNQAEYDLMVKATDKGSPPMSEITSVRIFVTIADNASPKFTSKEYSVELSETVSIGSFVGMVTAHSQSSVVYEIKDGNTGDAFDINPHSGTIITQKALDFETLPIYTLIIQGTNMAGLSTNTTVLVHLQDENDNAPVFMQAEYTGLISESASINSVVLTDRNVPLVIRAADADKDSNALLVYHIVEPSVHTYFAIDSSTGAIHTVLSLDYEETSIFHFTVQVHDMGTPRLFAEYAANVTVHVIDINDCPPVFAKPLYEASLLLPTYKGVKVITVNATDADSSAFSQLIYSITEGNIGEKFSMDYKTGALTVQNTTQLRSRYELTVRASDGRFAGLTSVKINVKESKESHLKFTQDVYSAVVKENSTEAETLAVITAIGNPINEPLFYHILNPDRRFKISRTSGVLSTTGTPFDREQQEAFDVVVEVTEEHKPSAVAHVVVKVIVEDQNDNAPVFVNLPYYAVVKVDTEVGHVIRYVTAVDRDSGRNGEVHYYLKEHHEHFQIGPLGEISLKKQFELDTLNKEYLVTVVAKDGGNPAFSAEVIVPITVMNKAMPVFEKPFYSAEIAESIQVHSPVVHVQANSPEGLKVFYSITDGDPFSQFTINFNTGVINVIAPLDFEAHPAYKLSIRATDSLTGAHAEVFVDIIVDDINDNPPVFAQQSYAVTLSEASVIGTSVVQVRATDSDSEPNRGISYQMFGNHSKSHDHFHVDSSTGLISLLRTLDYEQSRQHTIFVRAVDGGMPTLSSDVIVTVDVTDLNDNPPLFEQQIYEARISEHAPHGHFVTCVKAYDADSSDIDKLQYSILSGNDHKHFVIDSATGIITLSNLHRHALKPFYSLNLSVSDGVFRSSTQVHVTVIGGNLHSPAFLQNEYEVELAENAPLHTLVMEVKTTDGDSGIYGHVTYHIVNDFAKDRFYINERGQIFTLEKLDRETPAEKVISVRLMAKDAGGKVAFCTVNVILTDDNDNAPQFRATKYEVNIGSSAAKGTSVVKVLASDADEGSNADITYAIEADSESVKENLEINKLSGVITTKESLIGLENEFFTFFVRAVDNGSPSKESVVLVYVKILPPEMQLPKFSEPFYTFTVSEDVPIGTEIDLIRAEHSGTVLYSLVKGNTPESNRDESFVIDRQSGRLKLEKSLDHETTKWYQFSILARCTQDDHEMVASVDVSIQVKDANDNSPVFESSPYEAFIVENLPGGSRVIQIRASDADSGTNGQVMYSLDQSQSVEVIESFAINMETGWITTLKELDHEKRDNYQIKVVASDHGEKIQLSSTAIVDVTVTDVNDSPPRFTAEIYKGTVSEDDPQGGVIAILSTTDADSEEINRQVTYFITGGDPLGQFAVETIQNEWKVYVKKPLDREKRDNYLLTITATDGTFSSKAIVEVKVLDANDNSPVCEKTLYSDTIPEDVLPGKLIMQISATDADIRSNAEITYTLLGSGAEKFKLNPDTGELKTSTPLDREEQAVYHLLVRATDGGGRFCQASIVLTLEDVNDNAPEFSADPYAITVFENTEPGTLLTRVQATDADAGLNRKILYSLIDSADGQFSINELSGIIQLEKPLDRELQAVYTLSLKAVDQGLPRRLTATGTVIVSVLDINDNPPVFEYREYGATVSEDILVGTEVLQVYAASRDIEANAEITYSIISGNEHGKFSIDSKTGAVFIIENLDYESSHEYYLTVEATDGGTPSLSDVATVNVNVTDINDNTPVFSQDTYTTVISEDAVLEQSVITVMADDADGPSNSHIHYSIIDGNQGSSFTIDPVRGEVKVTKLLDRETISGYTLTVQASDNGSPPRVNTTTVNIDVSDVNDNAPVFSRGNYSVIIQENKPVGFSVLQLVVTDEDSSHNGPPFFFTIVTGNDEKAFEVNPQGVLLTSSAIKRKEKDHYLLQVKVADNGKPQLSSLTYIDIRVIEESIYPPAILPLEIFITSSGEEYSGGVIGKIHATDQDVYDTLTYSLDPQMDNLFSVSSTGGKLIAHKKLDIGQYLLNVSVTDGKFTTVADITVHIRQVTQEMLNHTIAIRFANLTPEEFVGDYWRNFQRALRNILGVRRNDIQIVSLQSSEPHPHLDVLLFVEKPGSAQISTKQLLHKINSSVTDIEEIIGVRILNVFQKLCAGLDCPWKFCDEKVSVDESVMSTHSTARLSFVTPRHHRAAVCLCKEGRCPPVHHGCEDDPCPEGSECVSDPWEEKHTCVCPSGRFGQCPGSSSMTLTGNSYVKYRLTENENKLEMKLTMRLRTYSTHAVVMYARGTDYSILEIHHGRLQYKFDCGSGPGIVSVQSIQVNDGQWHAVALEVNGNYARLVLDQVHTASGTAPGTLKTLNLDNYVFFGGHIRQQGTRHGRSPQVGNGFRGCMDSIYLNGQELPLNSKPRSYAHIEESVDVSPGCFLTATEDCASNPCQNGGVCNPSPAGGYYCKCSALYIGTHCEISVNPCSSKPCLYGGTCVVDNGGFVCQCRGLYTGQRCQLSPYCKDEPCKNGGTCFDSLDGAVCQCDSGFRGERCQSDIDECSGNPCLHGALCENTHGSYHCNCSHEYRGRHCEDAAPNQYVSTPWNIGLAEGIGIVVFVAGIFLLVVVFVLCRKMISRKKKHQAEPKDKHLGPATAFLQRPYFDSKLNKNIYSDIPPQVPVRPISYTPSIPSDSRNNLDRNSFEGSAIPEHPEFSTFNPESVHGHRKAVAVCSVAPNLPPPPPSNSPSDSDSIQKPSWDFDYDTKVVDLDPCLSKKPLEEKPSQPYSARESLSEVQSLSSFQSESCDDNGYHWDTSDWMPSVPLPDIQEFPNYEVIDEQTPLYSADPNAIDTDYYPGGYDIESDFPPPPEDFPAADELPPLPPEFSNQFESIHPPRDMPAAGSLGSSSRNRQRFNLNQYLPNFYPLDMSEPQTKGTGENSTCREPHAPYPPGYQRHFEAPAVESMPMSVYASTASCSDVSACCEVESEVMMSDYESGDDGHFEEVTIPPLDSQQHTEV

According to article PMC12524113:

T1: Fc receptor-like protein 3 (FCRL3), full-length, untagged, in Jurkat T cells (human) (UniProt Q96P31)
T1 sequence: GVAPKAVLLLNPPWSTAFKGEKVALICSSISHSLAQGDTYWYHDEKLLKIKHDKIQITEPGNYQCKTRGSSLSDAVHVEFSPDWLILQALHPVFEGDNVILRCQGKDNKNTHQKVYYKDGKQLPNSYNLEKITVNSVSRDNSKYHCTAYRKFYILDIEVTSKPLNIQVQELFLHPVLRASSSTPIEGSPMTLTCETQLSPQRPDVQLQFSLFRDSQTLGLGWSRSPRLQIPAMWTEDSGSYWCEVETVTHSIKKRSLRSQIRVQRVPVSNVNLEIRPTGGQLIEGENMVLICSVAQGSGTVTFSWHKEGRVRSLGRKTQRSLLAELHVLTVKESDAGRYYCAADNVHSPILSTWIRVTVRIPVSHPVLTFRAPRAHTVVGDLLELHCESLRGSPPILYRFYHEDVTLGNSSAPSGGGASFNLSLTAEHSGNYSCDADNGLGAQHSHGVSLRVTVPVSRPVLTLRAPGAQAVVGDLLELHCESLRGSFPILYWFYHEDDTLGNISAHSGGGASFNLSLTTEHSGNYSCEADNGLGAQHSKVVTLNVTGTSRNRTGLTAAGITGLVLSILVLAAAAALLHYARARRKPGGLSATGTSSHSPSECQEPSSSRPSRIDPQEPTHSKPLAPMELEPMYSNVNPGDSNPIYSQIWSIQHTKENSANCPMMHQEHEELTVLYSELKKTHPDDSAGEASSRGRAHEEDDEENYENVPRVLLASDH

T2: FCRL3-3xFLAG (3xFLAG at the intracellular C terminus), in Jurkat T cells (human) (UniProt Q96P31)
T2 sequence: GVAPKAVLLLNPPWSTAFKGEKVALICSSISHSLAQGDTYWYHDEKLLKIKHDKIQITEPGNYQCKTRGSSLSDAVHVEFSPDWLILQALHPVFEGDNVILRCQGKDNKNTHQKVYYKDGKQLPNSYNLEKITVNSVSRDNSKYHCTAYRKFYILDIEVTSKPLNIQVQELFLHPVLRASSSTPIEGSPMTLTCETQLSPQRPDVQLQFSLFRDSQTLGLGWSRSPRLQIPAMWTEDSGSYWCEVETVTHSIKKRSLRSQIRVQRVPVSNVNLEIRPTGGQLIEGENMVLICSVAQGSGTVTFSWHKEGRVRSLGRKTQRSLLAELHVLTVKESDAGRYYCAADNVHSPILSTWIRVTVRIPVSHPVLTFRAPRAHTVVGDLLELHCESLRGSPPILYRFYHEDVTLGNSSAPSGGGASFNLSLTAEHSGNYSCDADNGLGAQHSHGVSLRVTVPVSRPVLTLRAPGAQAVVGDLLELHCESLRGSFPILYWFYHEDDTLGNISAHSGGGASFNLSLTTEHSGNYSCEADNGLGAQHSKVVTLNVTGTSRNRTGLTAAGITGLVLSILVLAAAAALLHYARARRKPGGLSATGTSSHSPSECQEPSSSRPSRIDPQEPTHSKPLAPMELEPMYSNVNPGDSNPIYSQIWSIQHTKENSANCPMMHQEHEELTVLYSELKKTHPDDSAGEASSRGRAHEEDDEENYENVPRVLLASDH

T3: ubiquitin-associated and Src-homology 3 (SH3) domain containing A (UBASH3A), endogenous in Jurkat T cells (human (endogenous in Jurkat)) (UniProt P57075)
T3 sequence: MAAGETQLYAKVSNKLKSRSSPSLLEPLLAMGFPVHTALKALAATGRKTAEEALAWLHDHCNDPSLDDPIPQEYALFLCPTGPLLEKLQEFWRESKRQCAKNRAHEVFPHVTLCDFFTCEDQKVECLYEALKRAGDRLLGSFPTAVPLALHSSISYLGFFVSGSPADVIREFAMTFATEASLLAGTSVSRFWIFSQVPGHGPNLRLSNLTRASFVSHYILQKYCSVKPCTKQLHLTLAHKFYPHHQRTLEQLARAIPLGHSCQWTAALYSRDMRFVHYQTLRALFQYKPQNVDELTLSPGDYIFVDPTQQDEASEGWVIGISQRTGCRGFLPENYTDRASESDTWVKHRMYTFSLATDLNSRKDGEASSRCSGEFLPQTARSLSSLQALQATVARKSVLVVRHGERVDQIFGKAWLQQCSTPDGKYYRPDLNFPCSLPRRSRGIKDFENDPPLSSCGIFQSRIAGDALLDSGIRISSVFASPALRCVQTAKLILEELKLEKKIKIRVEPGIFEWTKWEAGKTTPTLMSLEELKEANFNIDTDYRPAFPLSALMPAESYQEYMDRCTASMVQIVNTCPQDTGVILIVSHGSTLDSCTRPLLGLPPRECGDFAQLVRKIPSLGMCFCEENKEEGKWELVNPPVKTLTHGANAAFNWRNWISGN

T4: FCRL3 truncated in the intracellular domain, 93 aa tail (human) (UniProt Q96P31)
T4 sequence: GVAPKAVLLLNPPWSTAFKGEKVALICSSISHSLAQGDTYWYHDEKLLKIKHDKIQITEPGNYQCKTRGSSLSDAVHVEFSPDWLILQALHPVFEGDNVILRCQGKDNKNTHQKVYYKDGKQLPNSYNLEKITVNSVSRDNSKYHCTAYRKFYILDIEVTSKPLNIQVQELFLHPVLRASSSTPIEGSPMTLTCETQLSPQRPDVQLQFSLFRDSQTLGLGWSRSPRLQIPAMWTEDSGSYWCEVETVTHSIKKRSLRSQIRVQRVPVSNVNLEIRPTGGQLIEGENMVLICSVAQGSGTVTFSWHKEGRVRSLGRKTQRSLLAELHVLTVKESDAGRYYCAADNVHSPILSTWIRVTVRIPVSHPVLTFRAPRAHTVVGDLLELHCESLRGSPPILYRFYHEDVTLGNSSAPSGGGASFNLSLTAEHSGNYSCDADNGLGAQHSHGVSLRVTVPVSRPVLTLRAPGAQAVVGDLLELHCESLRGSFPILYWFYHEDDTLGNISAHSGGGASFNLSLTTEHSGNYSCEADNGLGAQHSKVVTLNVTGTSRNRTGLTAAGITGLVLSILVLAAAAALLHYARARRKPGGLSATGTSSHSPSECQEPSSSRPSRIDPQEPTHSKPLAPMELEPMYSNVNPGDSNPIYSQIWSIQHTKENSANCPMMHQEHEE


Key:
[1] = target: T1, Fc receptor-like protein 3 (FCRL3), full-length, untagged, in Jurkat T cells (human); test: affinity purification with mass spectrometry; Jurkat cells expressing FCRL3 (full length or truncations) versus empty vector; 2 mg lysate (25 mM Tris-HCl pH 8.0, 250 mM NaCl, 0.2% NP-40), IP with rabbit polyclonal anti-FCRL3 antibody and protein A magnetic beads overnight at 4°C; mass spectrometry
[2] = target: T2, FCRL3-3xFLAG (3xFLAG at the intracellular C terminus), in Jurkat T cells (human); test: affinity purification with mass spectrometry; Jurkat cells expressing FCRL3-3xFLAG versus untagged FCRL3; 2 mg lysate, anti-FLAG agarose beads overnight at 4°C; mass spectrometry
[3] = target: T3, ubiquitin-associated and Src-homology 3 (SH3) domain containing A (UBASH3A), endogenous in Jurkat T cells (human (endogenous in Jurkat)); test: proximity labelling; Jurkat cells expressing FCRL3 or the EGFR-FCRL3 C140 aa chimera (or LV-empty controls); cells fixed, permeabilised with digitonin, anti-UBASH3A antibody, Protein A-TurboID and biotin; streptavidin pull-down and mass spectrometry
[4] = target: T1, Fc receptor-like protein 3 (FCRL3), full-length, untagged, in Jurkat T cells (human); test: proximity labelling; FCRL3-expressing versus empty-vector Jurkat cells; mouse monoclonal anti-FCRL3 antibody, digitonin permeabilisation, Protein A-TurboID and biotin (30 min, room temperature); streptavidin pull-down and mass spectrometry
[5] = target: T1, Fc receptor-like protein 3 (FCRL3), full-length, untagged, in Jurkat T cells (human); test: as above; remark: listed apart in the source
[6] = target: T4, FCRL3 truncated in the intracellular domain, 93 aa tail (human); test: affinity purification with mass spectrometry; Jurkat cells expressing FCRL3 (full length or truncations) versus empty vector; 2 mg lysate (25 mM Tris-HCl pH 8.0, 250 mM NaCl, 0.2% NP-40), IP with rabbit polyclonal anti-FCRL3 antibody and protein A magnetic beads overnight at 4°C; mass spectrometry
[7] = target: T1, Fc receptor-like protein 3 (FCRL3), full-length, untagged, in Jurkat T cells (human); test: as above; remark: listed apart in the source

| Molecule | binding [2] | binding [3] | other results |
| --- | --- | --- | --- |
| ZAP70, endogenous in Jurkat T cells (from UniProt P43403 1-619) (enzyme) | – | binds | – |
| Fc receptor-like protein 3 (FCRL3), full-length, untagged, in Jurkat T cells (receptor, UniProt Q96P31 18-734) GVAPKAVLLLNPPWSTAFKGEKVALICSSISHSLAQGDTYWYHDEKLLKIKHDKIQITEPGNYQCKTRGSSLSDAVHVEFSPDWLILQALHPVFEGDNVILRCQGKDNKNTHQKVYYKDGKQLPNSYNLEKITVNSVSRDNSKYHCTAYRKFYILDIEVTSKPLNIQVQELFLHPVLRASSSTPIEGSPMTLTCETQLSPQRPDVQLQFSLFRDSQTLGLGWSRSPRLQIPAMWTEDSGSYWCEVETVTHSIKKRSLRSQIRVQRVPVSNVNLEIRPTGGQLIEGENMVLICSVAQGSGTVTFSWHKEGRVRSLGRKTQRSLLAELHVLTVKESDAGRYYCAADNVHSPILSTWIRVTVRIPVSHPVLTFRAPRAHTVVGDLLELHCESLRGSPPILYRFYHEDVTLGNSSAPSGGGASFNLSLTAEHSGNYSCDADNGLGAQHSHGVSLRVTVPVSRPVLTLRAPGAQAVVGDLLELHCESLRGSFPILYWFYHEDDTLGNISAHSGGGASFNLSLTTEHSGNYSCEADNGLGAQHSKVVTLNVTGTSRNRTGLTAAGITGLVLSILVLAAAAALLHYARARRKPGGLSATGTSSHSPSECQEPSSSRPSRIDPQEPTHSKPLAPMELEPMYSNVNPGDSNPIYSQIWSIQHTKENSANCPMMHQEHEELTVLYSELKKTHPDDSAGEASSRGRAHEEDDEENYENVPRVLLASDH | – | binds | – |
| SHP2-interacting adaptor protein 1, endogenous in Jurkat T cells (protein, UniProt Q9Y3P8 25-196) DNCTDLLALGIPSITQAWGLWVLLGAVTLLFLISLAAHLSQWTRGRSRSHPGQGRSGESVEEVPLYGNLHYLQTGRLSQDPEPDQQDPTLGGPARAAEEVMCYTSLQLRPPQGRIPGPGTPVKYSEVVLDSEPKSQASGPEPELYASVCAQTRRARASFPDQAYANSQPAAS | – | – | binding [5]: binds |
| ubiquitin-associated and Src-homology 3 (SH3) domain containing A (UBASH3A), endogenous in Jurkat T cells (enzyme, UniProt P57075 1-661) MAAGETQLYAKVSNKLKSRSSPSLLEPLLAMGFPVHTALKALAATGRKTAEEALAWLHDHCNDPSLDDPIPQEYALFLCPTGPLLEKLQEFWRESKRQCAKNRAHEVFPHVTLCDFFTCEDQKVECLYEALKRAGDRLLGSFPTAVPLALHSSISYLGFFVSGSPADVIREFAMTFATEASLLAGTSVSRFWIFSQVPGHGPNLRLSNLTRASFVSHYILQKYCSVKPCTKQLHLTLAHKFYPHHQRTLEQLARAIPLGHSCQWTAALYSRDMRFVHYQTLRALFQYKPQNVDELTLSPGDYIFVDPTQQDEASEGWVIGISQRTGCRGFLPENYTDRASESDTWVKHRMYTFSLATDLNSRKDGEASSRCSGEFLPQTARSLSSLQALQATVARKSVLVVRHGERVDQIFGKAWLQQCSTPDGKYYRPDLNFPCSLPRRSRGIKDFENDPPLSSCGIFQSRIAGDALLDSGIRISSVFASPALRCVQTAKLILEELKLEKKIKIRVEPGIFEWTKWEAGKTTPTLMSLEELKEANFNIDTDYRPAFPLSALMPAESYQEYMDRCTASMVQIVNTCPQDTGVILIVSHGSTLDSCTRPLLGLPPRECGDFAQLVRKIPSLGMCFCEENKEEGKWELVNPPVKTLTHGANAAFNWRNWISGN | binds | – | binding [5]: binds; binding [6]: binds; binding [7]: binds |

Continued, in another order:

| binding [2] | binding [3] | Molecule | other results |
| --- | --- | --- | --- |
| binds | binds | CD3ε, endogenous in Jurkat T cells (from UniProt P07766 23-207) | binding [1]: binds |
| binds | – | FAT atypical cadherin 1 (FAT1), endogenous in Jurkat T cells (from UniProt Q14517 22-4588) | binding [1]: binds; binding [4]: binds |
| – | binds | UBASH3B, endogenous in Jurkat T cells (from UniProt Q8TF42 1-649) (enzyme) | – |

These are yes or no findings as the source states them, for the method shown. In cells and extracts the contact can be indirect. Here binding means that the protein was enriched with, or labelled near, the bait; the list need not be complete. For some assays here: Sequences can lack the tags named with a protein.
